Data reported in PubChem BioAssay AID248 (DTP/NCI, 2004).
The list does not hold the whole screen: it is rich in T/C values a quarter to a half above the control, in often repeated tests (any T/C) and in doses without a T/C. Further doses and runs are listed elsewhere. T/C is the treated group as % of the vehicle group. Some doses have a count of surviving animals in place of a T/C: the source holds a T/C of zero for them, seemingly a mark for toxic or unscored doses. Some survivor counts are full or nearly so, which does not show that the dose was tolerated: survival well below the control is almost never listed, so the zero probably covers shortened survival too. Counts of survivors are from the toxicity check (mostly the fifth day) where no day follows; animals may have died later. Schedule codes are those of the source, read here as Q, the interval in days (D) or hours (H), X, the number of doses. Some schedules carry Z or #; the key to these is not given. Some structures stand for samples that the source files as different forms (salt, stereo form or complex); doses refer to the form tested. Some entries hold several experiments; their values stand side by side, smallest first. Where survival is the endpoint, this PubChem deposit counts one and a half times the control or more as active, and values a quarter to a half above the control carry no call in these data; other NCI protocols may use other cut-offs. Some T/C values are followed by the survivors on the day toxicity was checked, most often the fifth; where none is given, no animal had died by that day.

System: L1210 leukemia ip in BDF1 mice, survival T/C
Assay: NCI In Vivo Anticancer Drug Screen. Data for tumor model L1210 Leukemia (intraperitoneal) in B6D2F1 (BDF1) mice
Details: T/C endpoint: mean survival time, higher T/C = longer survival
[1] = dose: 80.0 mg/kg/injection, schedule: Q04DX002 (ip), vehicle: Klucel (hydroxypropylcellulose) (HPC)
[2] = dose: 96.0 mg/kg/injection, schedule: Q03DX Z (ip), vehicle: saline

Question: Which survivor count (dose: 50.0 mg/kg/injection, schedule: Q01DX009 (ip), vehicle: saline with Tween-80) does the source give for `O=C(Nc1ccc(C2=NCCN2)cc1)c1ccc(C(=O)Nc2ccc(C3=NCCN3)cc2)c(Cl)c1` here?
Answer: 4 of 6

Question: And the survivor count (dose: 50.0 mg/kg/injection, schedule: Q01DX010 (ip), vehicle: carboxymethylcellulose (CMC))?
Answer: 8 of 10

Question: And the survivor count (dose: 50.0 mg/kg/injection, schedule: Q01DX010 (ip), vehicle: other)?
Answer: 3 of 10

Question: What about the T/C (dose: 50.0 mg/kg/injection, schedule: Q01DX010 (sc), vehicle: olive oil, sesame oil, peanut oil) of the same compound?
Answer: 133 % of control

Question: And the T/C (dose: 54.0 mg/kg/injection, schedule: Q## X032 (ip), vehicle: carboxymethylcellulose (CMC))?
Answer: 140 % of control [9 of 10 alive]

Question: And the T/C (dose: 56.0 mg/kg/injection, schedule: Q01DX009 (ip), vehicle: Klucel (hydroxypropylcellulose) (HPC))?
Answer: 134 % of control

Question: And the T/C (dose: 59.0 mg/kg/injection, schedule: Q02DX010 (ip), vehicle: carboxymethylcellulose (CMC))?
Answer: 144 % of control

Question: And the T/C (dose: 63.0 mg/kg/injection, schedule: Q01DX001 (ip), vehicle: carboxymethylcellulose (CMC))?
Answer: 130 and 137 % of control [8 of 10 alive]

Question: What about the T/C (dose: 63.0 mg/kg/injection, schedule: Q01DX001 (ip), vehicle: other) of the same compound?
Answer: 129 [9 of 10 alive] and 139 % of control

Question: What about the survivor count (dose: 64.0 mg/kg/injection, schedule: Q01DX010 (ip), vehicle: other) of the same compound?
Answer: 0 of 8

Question: And the survivor count (dose: 64.0 mg/kg/injection, schedule: Q01DX010 (ip), vehicle: saline)?
Answer: 4 of 6 and 5 of 6

Question: And the survivor count (dose: 64.0 mg/kg/injection, schedule: Q01DX010 (ip), vehicle: water)?
Answer: 0 of 6

Question: What about the survivor count (dose: 64.0 mg/kg/injection, schedule: Q01DX Z (ip), vehicle: saline) of the same compound?
Answer: 0 of 6 and 6 of 6

Question: And the T/C (dose: 64.0 mg/kg/injection, schedule: Q01DX Z (sc), vehicle: steroid suspending solution)?
Answer: 126 % of control

Question: What about the survivor count (dose: 65.0 mg/kg/injection, schedule: Q01DX Z (sc), vehicle: carboxymethylcellulose (CMC)) of the same compound?
Answer: 6 of 6

Question: What about the T/C (dose: 67.0 mg/kg/injection, schedule: Q01DX001 (ip), vehicle: carboxymethylcellulose (CMC)) of the same compound?
Answer: 127 and 139 % of control

Question: And the T/C (dose: 67.5 mg/kg/injection, schedule: Q02DX010 (ip), vehicle: carboxymethylcellulose (CMC))?
Answer: 98, 106, 109, 137, 142, 145, 153 % of control

Question: And the T/C (dose: 74.0 mg/kg/injection, schedule: Q01DX001 (ip), vehicle: carboxymethylcellulose (CMC))?
Answer: 131 % of control

Question: And the survivor count (dose: 75.0 mg/kg/injection, schedule: Q01DX015 (ip), vehicle: carboxymethylcellulose (CMC))?
Answer: 0 of 10 and 1 of 10

Question: What about the T/C [1] of the same compound?
Answer: 146 [5 of 6 alive], 147, 154 % of control

Question: And the survivor count [1]?
Answer: 3 of 6

Question: And the survivor count (dose: 81.0 mg/kg/injection, schedule: Q02DX010 (ip), vehicle: other)?
Answer: 6 of 6

Question: And the survivor count (dose: 88.0 mg/kg/injection, schedule: Q02DX008 (ip), vehicle: carboxymethylcellulose (CMC))?
Answer: 1 of 10 and 2 of 10

Question: What about the survivor count (dose: 96.0 mg/kg/injection, schedule: Q01DX001 (ip), vehicle: carboxymethylcellulose (CMC)) of the same compound?
Answer: 5 of 10

Question: What about the survivor count (dose: 96.0 mg/kg/injection, schedule: Q01DX001 (ip), vehicle: other) of the same compound?
Answer: 3 of 10

Question: And the T/C [2]?
Answer: 145 % of control

Question: And the survivor count [2]?
Answer: 2 of 6

Question: What about the survivor count (dose: 100.0 mg/kg/injection, schedule: Q01DX001 (im), vehicle: steroid suspending solution) of the same compound?
Answer: 2 of 6

Question: And the survivor count (dose: 100.0 mg/kg/injection, schedule: Q01DX001 (ip), vehicle: carboxymethylcellulose (CMC))?
Answer: 0 of 10 and 6 of 10

Question: And the survivor count (dose: 100.0 mg/kg/injection, schedule: Q## X004 (ip), vehicle: carboxymethylcellulose (CMC))?
Answer: 1 of 10 and 3 of 10

Question: And the T/C (dose: 101.25 mg/kg/injection, schedule: Q02DX010 (ip), vehicle: carboxymethylcellulose (CMC))?
Answer: 66, 72, 73, 76, 93, 106 % of control [4 of 5 alive]

Question: And the survivor count (dose: 110.0 mg/kg/injection, schedule: Q01DX001 (ip), vehicle: carboxymethylcellulose (CMC))?
Answer: 0 of 10 and 4 of 10

Question: What about the survivor count (dose: 125.0 mg/kg/injection, schedule: Q01DX Z (sc), vehicle: steroid suspending solution) of the same compound?
Answer: 7 of 7

Question: And the survivor count (dose: 128.0 mg/kg/injection, schedule: Q01DX010 (ip), vehicle: saline)?
Answer: 0 of 6

Question: What about the survivor count (dose: 128.0 mg/kg/injection, schedule: Q01DX Z (ip), vehicle: saline) of the same compound?
Answer: 0 of 6

Question: And the survivor count (dose: 132.0 mg/kg/injection, schedule: Q02DX008 (ip), vehicle: carboxymethylcellulose (CMC))?
Answer: 0 of 10

Question: What about the survivor count (dose: 135.0 mg/kg/injection, schedule: Q02DX010 (ip), vehicle: carboxymethylcellulose (CMC)) of the same compound?
Answer: 10 of 10

Question: And the survivor count (dose: 144.0 mg/kg/injection, schedule: Q01DX001 (ip), vehicle: carboxymethylcellulose (CMC))?
Answer: 1 of 10 and 2 of 10

Question: What about the survivor count (dose: 144.0 mg/kg/injection, schedule: Q01DX001 (ip), vehicle: other) of the same compound?
Answer: 0 of 10 and 2 of 10

Question: And the survivor count (dose: 150.0 mg/kg/injection, schedule: Q01DX001 (ip), vehicle: carboxymethylcellulose (CMC))?
Answer: 0 of 10 and 5 of 10

Question: What about the survivor count (dose: 160.0 mg/kg/injection, schedule: Q01DX001 (ip), vehicle: saline) of the same compound?
Answer: 0 of 6

Question: What about the survivor count (dose: 180.0 mg/kg/injection, schedule: Q## X032 (ip), vehicle: carboxymethylcellulose (CMC)) of the same compound?
Answer: 4 of 10 and 5 of 10

Question: What about the survivor count (dose: 192.0 mg/kg/injection, schedule: Q03DX Z (ip), vehicle: saline) of the same compound?
Answer: 0 of 6

Question: What about the survivor count (dose: 200.0 mg/kg/injection, schedule: Q01DX001 (im), vehicle: steroid suspending solution) of the same compound?
Answer: 0 of 6

Question: And the survivor count (dose: 216.0 mg/kg/injection, schedule: Q01DX001 (ip), vehicle: carboxymethylcellulose (CMC))?
Answer: 0 of 10

Question: And the survivor count (dose: 216.0 mg/kg/injection, schedule: Q01DX001 (ip), vehicle: other)?
Answer: 0 of 10

Question: And the survivor count (dose: 224.0 mg/kg/injection, schedule: Q07DX Z (ip), vehicle: saline)?
Answer: 0 of 6 and 1 of 6

Question: What about the survivor count (dose: 225.0 mg/kg/injection, schedule: Q01DX001 (ip), vehicle: carboxymethylcellulose (CMC)) of the same compound?
Answer: 0 of 10

Question: What about the T/C (dose: 240.0 mg/kg/injection, schedule: Q01DX Z (oral), vehicle: methylcellulose (MC)) of the same compound?
Answer: 130 % of control

Question: And the survivor count (dose: 250.0 mg/kg/injection, schedule: Q01DX Z (sc), vehicle: steroid suspending solution)?
Answer: 3 of 7

Question: What about the survivor count (dose: 448.0 mg/kg/injection, schedule: Q07DX Z (ip), vehicle: saline) of the same compound?
Answer: 0 of 6

Question: What about the T/C (dose: 500.0 mg/kg/injection, schedule: Q01DX010 (oral), vehicle: other) of the same compound?
Answer: 127 % of control
